Values quoted from earlier work in patent US4999424A, “GAR transformylase inhibitor” (The Pennsylvania State University, priority 1988, dated 1991).
At least one compound was matched to its structure with a doubt left.

Tested on: all types of GAR TFase isolated
Conditions: cited from earlier work

Nc1nc2ccc(CNc3ccc(C(=O)N[C@@H](CCC(=O)O)C(=O)O)cc3)cc2c(=O)[nH]1 [DDF, 5,8-dideazafolate, reference compound]
Cofactor activity with GAR TFase: fully active
